No constants are given. Whether binding was seen depends on the method and setting. A result given as binding can be weak or reduced; the word gives no strength. Where a sequence is shown, tags or fusion partners need not be part of it. For some assays here: Binding seen in cells or lysates may run through a third protein.
Assays:
[1] = target: T1, HA-Grx4 (recombinant, TEV-cleaved) (S. pombe) (UniProt O74790); assay: UV-visible spectroscopy after Fe-S cluster reconstitution; anaerobic in vitro reconstitution of the Fe-S cluster with recombinant Grx4 (50-60 uM) and equimolar recombinant Fra2; both purified
T1 sequence: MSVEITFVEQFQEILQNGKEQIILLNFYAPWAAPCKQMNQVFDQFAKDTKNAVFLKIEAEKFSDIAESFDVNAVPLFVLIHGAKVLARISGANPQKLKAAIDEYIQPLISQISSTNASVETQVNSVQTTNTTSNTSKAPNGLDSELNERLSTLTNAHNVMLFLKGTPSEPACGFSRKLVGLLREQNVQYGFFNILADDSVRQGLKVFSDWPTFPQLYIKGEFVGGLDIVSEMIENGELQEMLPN

[2] = target: T2, Grx4-GFP (S. pombe) (UniProt O74790); assay: co-IP; total native protein extracts of S. pombe strains with tagged genes, immuno-precipitated with GFP-trap beads, blotted with anti-Myc or anti-GFP; cells treated or not with 0.25 mM DIP; for Grx4-Fep1 also in cells lacking Fra2
T2 sequence: T1 sequence

Fra2 (recombinant) (S. pombe)
binding [1]: binds

Fra2-Myc (S. pombe)
binding [2]: binds
